These are yes or no findings as the source states them, for the method shown. Binding seen in cells or lysates may run through a third protein. A result given as binding can be weak or reduced; the word gives no strength. For some of these results: Where a sequence is shown, tags or fusion partners need not be part of it.
Experiments:
Test in all cases: co-IP
[1] = biological target: T1, Myc-tagged HIPK4 (UniProt Q8NE63)
T1 sequence: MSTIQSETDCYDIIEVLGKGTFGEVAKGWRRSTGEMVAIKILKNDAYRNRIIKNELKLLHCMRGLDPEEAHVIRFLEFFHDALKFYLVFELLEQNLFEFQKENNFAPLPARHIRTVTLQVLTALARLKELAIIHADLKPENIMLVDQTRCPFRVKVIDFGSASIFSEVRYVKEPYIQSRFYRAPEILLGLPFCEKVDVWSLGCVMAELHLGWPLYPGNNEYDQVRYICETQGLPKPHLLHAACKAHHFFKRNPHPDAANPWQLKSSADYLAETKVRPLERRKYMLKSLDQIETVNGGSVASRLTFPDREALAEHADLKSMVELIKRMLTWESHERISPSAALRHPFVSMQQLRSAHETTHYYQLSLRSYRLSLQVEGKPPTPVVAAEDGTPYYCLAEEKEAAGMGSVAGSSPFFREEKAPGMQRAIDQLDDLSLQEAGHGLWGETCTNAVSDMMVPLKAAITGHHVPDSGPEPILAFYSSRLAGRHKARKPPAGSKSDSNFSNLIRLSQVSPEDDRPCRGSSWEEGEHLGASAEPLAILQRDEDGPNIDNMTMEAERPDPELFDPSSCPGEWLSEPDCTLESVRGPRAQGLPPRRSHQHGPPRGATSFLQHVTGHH

Sequences of proteins named here, by UniProt entry; tags and fusion partners are left off.
UniProt Q14289, whole entry: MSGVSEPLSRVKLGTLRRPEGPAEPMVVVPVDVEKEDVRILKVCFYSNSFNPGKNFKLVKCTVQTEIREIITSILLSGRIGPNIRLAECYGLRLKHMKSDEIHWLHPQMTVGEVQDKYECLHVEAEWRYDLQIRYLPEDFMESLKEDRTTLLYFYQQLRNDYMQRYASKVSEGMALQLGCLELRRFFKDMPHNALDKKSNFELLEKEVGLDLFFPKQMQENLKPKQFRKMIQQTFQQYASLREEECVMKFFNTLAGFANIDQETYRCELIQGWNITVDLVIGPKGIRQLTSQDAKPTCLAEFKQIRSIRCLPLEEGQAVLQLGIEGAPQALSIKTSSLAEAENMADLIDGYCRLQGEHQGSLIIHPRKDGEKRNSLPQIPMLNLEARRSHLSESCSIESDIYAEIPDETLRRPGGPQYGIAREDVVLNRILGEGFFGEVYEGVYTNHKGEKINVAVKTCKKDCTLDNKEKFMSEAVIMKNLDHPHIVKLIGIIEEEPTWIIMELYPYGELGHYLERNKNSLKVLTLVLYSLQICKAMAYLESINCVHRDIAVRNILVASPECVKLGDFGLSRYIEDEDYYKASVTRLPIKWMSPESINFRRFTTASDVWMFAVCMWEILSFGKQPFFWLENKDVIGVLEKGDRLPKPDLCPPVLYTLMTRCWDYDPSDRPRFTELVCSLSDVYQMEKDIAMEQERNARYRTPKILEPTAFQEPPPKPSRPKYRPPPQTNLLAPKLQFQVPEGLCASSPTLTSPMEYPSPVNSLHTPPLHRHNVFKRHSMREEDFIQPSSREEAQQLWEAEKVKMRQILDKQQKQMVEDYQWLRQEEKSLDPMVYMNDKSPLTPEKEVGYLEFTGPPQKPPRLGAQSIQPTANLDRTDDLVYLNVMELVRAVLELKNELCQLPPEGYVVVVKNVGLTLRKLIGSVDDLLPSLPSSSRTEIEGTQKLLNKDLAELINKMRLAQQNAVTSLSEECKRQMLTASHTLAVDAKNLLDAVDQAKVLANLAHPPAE

[2] = biological target: Myc-tagged JNK2 (UniProt P45984)
[3] = biological target: T2, Myc-tagged ARK5 (UniProt O60285)
T2 sequence: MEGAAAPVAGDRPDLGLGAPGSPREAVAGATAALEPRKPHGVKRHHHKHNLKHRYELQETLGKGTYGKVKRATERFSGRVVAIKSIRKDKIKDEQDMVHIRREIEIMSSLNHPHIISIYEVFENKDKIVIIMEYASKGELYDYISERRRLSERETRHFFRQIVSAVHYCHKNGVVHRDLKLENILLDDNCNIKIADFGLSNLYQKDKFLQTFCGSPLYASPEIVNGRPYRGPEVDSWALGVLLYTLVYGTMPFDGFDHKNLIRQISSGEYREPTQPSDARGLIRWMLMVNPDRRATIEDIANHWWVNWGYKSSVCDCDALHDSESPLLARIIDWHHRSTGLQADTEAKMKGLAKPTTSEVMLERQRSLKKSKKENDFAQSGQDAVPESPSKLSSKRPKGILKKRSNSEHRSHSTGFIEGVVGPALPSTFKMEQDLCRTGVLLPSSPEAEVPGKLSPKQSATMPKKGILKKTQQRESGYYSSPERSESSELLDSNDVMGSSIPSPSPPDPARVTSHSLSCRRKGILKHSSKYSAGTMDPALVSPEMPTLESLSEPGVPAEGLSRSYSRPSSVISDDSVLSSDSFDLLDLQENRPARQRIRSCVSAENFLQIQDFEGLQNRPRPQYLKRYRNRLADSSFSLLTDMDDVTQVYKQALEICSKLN

[4] = biological target: Myc-tagged PYK2 (protein-tyrosine kinase 2-beta) (UniProt Q14289)

- binding [1]: binds weakly
- binding [2]: binds weakly
- binding [3]: binds weakly
- binding [4]: binds
Substance: HA-tagged IRF5 (Interferon regulatory factor 5) (from UniProt Q13568-2)
